Assay results as given in article PMC5469197, “ANGUSTIFOLIA, a Plant Homolog of CtBP/BARS Localizes to Stress Granules and Regulates Their Formation” (Frontiers in Plant Science, 2017).
Results are given in words; binding and its absence hold for the method and conditions named. In cells and extracts the contact can be indirect. These calls come from enrichment with a bait or labelling near it, and not all partners need be listed. Sequences can lack the tags named with a protein.

Sequences of proteins named here, by UniProt entry; tags and fusion partners are left off. Residues count along the entry.
UniProt O04151, residues 23-425: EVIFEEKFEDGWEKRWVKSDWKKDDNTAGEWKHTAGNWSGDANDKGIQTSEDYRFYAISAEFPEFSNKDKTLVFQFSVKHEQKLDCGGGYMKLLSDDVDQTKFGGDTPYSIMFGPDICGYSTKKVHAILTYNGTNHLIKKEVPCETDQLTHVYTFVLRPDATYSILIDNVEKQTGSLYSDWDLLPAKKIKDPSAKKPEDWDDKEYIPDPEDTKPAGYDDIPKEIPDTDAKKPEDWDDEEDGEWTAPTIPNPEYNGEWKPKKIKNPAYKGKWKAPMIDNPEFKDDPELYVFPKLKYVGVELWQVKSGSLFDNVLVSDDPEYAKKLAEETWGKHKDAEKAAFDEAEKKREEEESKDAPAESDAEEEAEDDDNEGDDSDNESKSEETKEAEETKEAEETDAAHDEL

T1: YFP-AN-strep (Arabidopsis thaliana) (UniProt O23702)
T1 sequence: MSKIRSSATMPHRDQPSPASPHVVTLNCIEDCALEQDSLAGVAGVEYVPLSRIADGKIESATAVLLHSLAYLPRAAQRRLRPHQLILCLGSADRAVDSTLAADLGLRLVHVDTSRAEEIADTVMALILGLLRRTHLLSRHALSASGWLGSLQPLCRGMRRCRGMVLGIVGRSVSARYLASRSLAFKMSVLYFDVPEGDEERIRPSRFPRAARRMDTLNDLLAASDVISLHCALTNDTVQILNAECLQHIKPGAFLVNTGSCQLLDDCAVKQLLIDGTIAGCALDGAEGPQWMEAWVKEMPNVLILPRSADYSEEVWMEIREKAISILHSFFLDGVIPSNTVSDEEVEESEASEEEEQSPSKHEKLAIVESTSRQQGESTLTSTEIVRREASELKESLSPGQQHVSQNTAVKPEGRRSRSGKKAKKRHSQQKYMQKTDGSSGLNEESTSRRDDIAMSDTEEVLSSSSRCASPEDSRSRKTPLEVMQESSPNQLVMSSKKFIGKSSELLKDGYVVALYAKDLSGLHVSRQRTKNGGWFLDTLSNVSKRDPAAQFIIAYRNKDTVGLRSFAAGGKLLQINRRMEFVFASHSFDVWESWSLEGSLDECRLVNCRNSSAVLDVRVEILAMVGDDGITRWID

B1: PO…-BINDING PROTEIN RBP47C′, endogenous (protein, UniProt Q9SX80 1-434)
chain: MADVKVQSESESSDSHPLVDYQSLPPYPPPHPPVEVEENQPKTSPTPPPPHWMRYPPVLMPQMMYAPPPPMPFSPYHQYPNHHHFHHQSRGNKHQNAFNGENKTIWVGDLQNWMDEAYLNSAFTSAEEREIVSLKVIRNKHNGSSEGYGFVEFESHDVADKVLQEFNGAPMPNTDQPFRLNWASFSTGEKRLENNGPDLSIFVGDLAPDVSDALLHETFSEKYPSVKAAKVVLDANTGRSKGYGFVRFGDENERTKAMTEMNGVKCSSRAMRIGPATPRKTNGYQQQGGYMPSGAFTRSEGDTINTTIFVGGLDSSVTDEDLKQPFSEFGEIVSVKIPVGKGCGFVQFVNRPNAEEALEKLNGTVIGKQTVRLSWGRNPANKQPRDKYGNQWVDPYYGGQFYNGYGYMVPQPDPRMYPAAPYYPMYGGHQQQVS
B2: COLD SHOCK PROTEIN 2 (CSP2), endogenous (protein, UniProt Q41188 1-203)
chain: MSGDNGGGERRKGSVKWFDTQKGFGFITPDDGGDDLFVHQSSIRSEGFRSLAAEEAVEFEVEIDNNNRPKAIDVSGPDGAPVQGNSGGGSSGGRGGFGGGRGGGRGSGGGYGGGGGGYGGRGGGGRGGSDCYKCGEPGHMARDCSEGGGGYGGGGGGYGGGGGYGGGGGGYGGGGRGGGGGGGSCYSCGESGHFARDCTSGGR
B3: PO… TRACT-BINDING PROTEIN HOMOLOG 3 (PTBP3), endogenous (protein, UniProt Q6ICX4 1-432)
chain: MAESSKVVHVRNVGHEISENDLLQLFQPFGVITKLVMLRAKNQALLQMQDVSSAVSALQFFTNVQPTIRGRNVYVQFSSHQELTTIEQNIHGREDEPNRILLVTIHHMLYPITVDVLHQVFSPYGFVEKLVTFQKSAGFQALIQYQVQQCAASARTALQGRNIYDGCCQLDIQFSNLEELQVNYNNDRSRDYTNPNLPAEQKGRSSHPCYGDTGVAYPQMANTSAIAAAFGGGLPPGITGTNDRCTVLVSNLNADSIDEDKLFNLFSLYGNIVRIKLLRNKPDHALVQMGDGFQAELAVHFLKGAMLFGKRLEVNFSKHPNITPGTDSHDYVNSNLNRFNRNAAKNYRYCCSPTKMIHLSTLPQDVTEEEVMNHVQEHGAVVNTKVFEMNGKKQALVQFENEEEAAEALVCKHATSLGGSIIRISFSQLQTI
B4: PO…-BINDING PROTEIN RBP47A, endogenous (protein, UniProt F4I3B3 1-445)
chain: MQTPNNNGSTDSVLPPTSAGTTPPPPLQQSTPPPQQQQQQQWQQQQQWMAAMQQYPAAAMAMMQQQQMMMYPHPQYAPYNQAAYQQHPQFQYAAYQQQQQQHHQSQQQPRGGSGGDDVKTLWVGDLLHWMDETYLHTCFSHTNEVSSVKVIRNKQTCQSEGYGFVEFLSRSAAEEALQSFSGVTMPNAEQPFRLNWASFSTGEKRASENGPDLSIFVGDLAPDVSDAVLLETFAGRYPSVKGAKVVIDSNTGRSKGYGFVRFGDENERSRAMTEMNGAFCSSRQMRVGIATPKRAAAYGQQNGSQALTLAGGHGGNGSMSDGESNNSTIFVGGLDADVTEEDLMQPFSDFGEVVSVKIPVGKGCGFVQFANRQSAEEAIGNLNGTVIGKNTVRLSWGRSPNKQWRSDSGNQWNGGYSRGQGYNNGYANQDSNMYATAAAAVPGAS
B5: GLYCINE-RICH RNA-BINDING PROTEIN 2 (GRP2), endogenous (protein, UniProt Q9SVM8 35-158)
chain: TKLFIGGLSWGTDDASLRDAFAHFGDVVDAKVIVDRETGRSRGFGFVNFNDEGAATAAISEMDGKELNGRHIRVNPANDRPSAPRAYGGGGGYSGGGGGYGGGGGGYGGGGGGYGGGGDGGGGF
B6: mRNA cap guanine-N7 methyltransferase 1, endogenous (protein, UniProt Q9LHQ7 1-370)
chain: MKRGFSDSPSSSAPPPSSRFKSNPEGDSQFLEDETTKNFARKVADHYSRRTNQTLEEREASPIIHLKKLNNWIKSVLIQLYARPDDAVLDLACGKGGDLIKWDKARIGYYVGIDIAEGSIEDCRTRYNGDADHHQRRKKFSFPSRLLCGDCFEVELDKILEEDAPFDICSCQFAMHYSWTTEARARRALANVSALLRPGGVFIGTMPDANVIIKKLREAEGLEIGNSVYWIRFGEEYSQKKFKSSSPFGIEYVFHLEDAVDCPEWIVPFNVFKSLAEEYDLELVFVKNSHEFVHEYMKKPEFVELMRRLGALGDGSNDQSTLSADEWEAAYLYLSFVLRKRGESDGARRSGRRKNGKMNLSKDDVLYIDS
B7: KH DOMAIN-CONTAINING PROTEIN (AT2G38610), endogenous (protein, UniProt Q9ZVI3 1-286)
chain: MSGLYNNSSYFSPARAASPQIRSTPEIDSSQYLTELLAEHQKLTPFMQVLPICSRLLNQEMFRVSGMMSNQGFGDFDRLRHRSPSPMASSNLMSNVSNTGLGGWNGLSQERLSGTPGMTMDWQGAPGSPSSYTVKRILRLEIPVDNYPNFNFVGRLLGPRGNSLKRVEATTGCRVFIRGKGSIKDPEKEDKLRGRPGYEHLNEQLHILIEADLPASIVEIRLRQAQEIIEELLKPVDESQDFIKRQQLRELALLNSNNLREESPGPSGGGSVSPFNSSGKRPKTGC
B8: PROTEIN MEI2-LIKE 5 (ATML5), endogenous (protein, UniProt Q8VWF5 1-800)
chain: MDIPHEAEAGAWGILPGFGRHHHPSSDATLFSSSLPVFPRGKLQLSDNRDGFSLIDDTAVSRTNKFNESADDFESHSIGNLLPDEEDLLTGMMDDLDLGELPDADDYDLFGSGGGMELDADFRDNLSMSGPPRLSLSSLGGNAIPQFNIPNGAGTVAGEHPYGEHPSRTLFVRNINSNVEDSELTALFEQYGDIRTLYTTCKHRGFVMISYYDIRSARMAMRSLQNKPLRRRKLDIHFSIPKDNPSEKDMNQGTLVVFNLDPSISNDDLHGIFGAHGEIKEIRETPHKRHHKFVEFYDVRGAEAALKALNRCEIAGKRIKVEPSRPGGARRSLMLQLNQDLENDDLHYLPMIGSPMANSPPMQGNWPLNSPVEGSPLQSVLSRSPVFGLSPTRNGHLSGLASALNSQGPSSKLAPIGRGQIGSNGFQQSSHLFQEPKMDNKYTGNLSPSGPLISNGGGIETLSGSEFLWGSPNARSEPSSSSVWSTSSTGNPLFSTRVDRSVPFPHQHQNQSRSHHHFHVGSAPSGVPLEKHFGFVPESSKDALFMNTVGLQGMSGMGLNGGSFSSKMANNGIINSGSMAENGFSSYRMMSSPRFSPMFLSSGLNPGRFASGFDSLYENGRPRRVENNSNQVESRKQFQLDLEKILNGEDSRTTLMIKNIPNKYTSKMLLAAIDEKNQGTYNFLYLPIDFKNKCNVGYAFINMLNPELIIPFYEAFNGKKWEKFNSEKVASLAYARIQGKSALIAHFQNSSLMNEDMRCRPIIFDTPNNPESVEQVVDEESKNMDLLDSQLSDDDGRERS

Each molecule was assayed against T1, YFP-AN-strep (Arabidopsis thaliana) (assay: affinity purification with mass spectrometry; YFP-AN-strep in crude extract of transfected Arabidopsis cell culture bound to Strep-Tactin MacroPrep, five washings, eluted with 2.5 mM desthiobiotin; co-purified proteins by mass spectrometry, against a control cell culture).

binding, binds:
CALRETICULIN-1 (CRT1), endogenous (from UniProt O04151 23-425)
KEULE, endogenous
B1
B2
B3
B4
B5
B6
B7
B8
